Values from PubChem BioAssay AID1508597 (Cure First, 2020).

Screen: 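Genes whose silencing sensitises or protects ovarian cancer cells against rucaparib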 (primary screen)
System: human ovarian carcinoma lines grown from tumours: OCI-P5x (papillary serous) and OCI-C5x (clear cell)
Knock-down reagent: siRNA pool against human genes, 1.25 pmol siRNA per well
Time to read-out: 72 h or 96 h, depending on the cell culture
Challenge: rucaparib 20 µM (about IC30) or vehicle, present until read-out
Measured: 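Luminescent ATP-based viability assay read 72 or 96 h after transfection, depending on culture, given as normalised percent viability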
Scale: viability, normalised: higher = more viable cells remaining
Hit rule: 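a well counts as a hit if its normalised viability is under 80 percent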
Calls: active = viability under 80%; inactive = viability 80% or more
Shown is one part, drawn at random, of about 2,100 deposited reagents. 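Calls flag viability under 80% in either arm, not effects specific to rucaparib; the reference for percent is not stated.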 Not stated in the record: the 100% reference.

| gene | rucaparib or vehicle | cell line | technical replicate | viability, normalised (%) | Outcome |
| --- | --- | --- | --- | --- | --- |
| SNRK (SNF related kinase) | Rucaparib | OCI-C5x (clear cell) | 1 | 59.5 | active |
| SNRK (SNF related kinase) | Rucaparib | OCI-C5x (clear cell) | 2 | 63.4 | active |
| SNRK (SNF related kinase) | Rucaparib | OCI-C5x (clear cell) | 3 | 56.4 | active |
| SNRK (SNF related kinase) | Rucaparib | OCI-P5x (serous) | 1 | 66.3 | active |
| SNRK (SNF related kinase) | Rucaparib | OCI-P5x (serous) | 2 | 85.2 | inactive |
| SNRK (SNF related kinase) | Rucaparib | OCI-P5x (serous) | 3 | 63.2 | active |
| SNRK (SNF related kinase) | Vehicle | OCI-C5x (clear cell) | 1 | 44.2 | active |
| SNRK (SNF related kinase) | Vehicle | OCI-C5x (clear cell) | 2 | 62.2 | active |
| SNRK (SNF related kinase) | Vehicle | OCI-C5x (clear cell) | 3 | 43.7 | active |
| SNRK (SNF related kinase) | Vehicle | OCI-P5x (serous) | 1 | 64.2 | active |
| SNRK (SNF related kinase) | Vehicle | OCI-P5x (serous) | 2 | 56.8 | active |
| SNRK (SNF related kinase) | Vehicle | OCI-P5x (serous) | 3 | 61.9 | active |
| TNIK (TRAF2 and NCK interacting kinase) | Rucaparib | OCI-C5x (clear cell) | 1 | 36.6 | active |
| TNIK (TRAF2 and NCK interacting kinase) | Rucaparib | OCI-C5x (clear cell) | 2 | 40.8 | active |
| TNIK (TRAF2 and NCK interacting kinase) | Rucaparib | OCI-C5x (clear cell) | 3 | 27.5 | active |
| TNIK (TRAF2 and NCK interacting kinase) | Rucaparib | OCI-P5x (serous) | 1 | 97.4 | inactive |
| TNIK (TRAF2 and NCK interacting kinase) | Rucaparib | OCI-P5x (serous) | 2 | 117 | inactive |
| TNIK (TRAF2 and NCK interacting kinase) | Rucaparib | OCI-P5x (serous) | 3 | 64.6 | active |
| TNIK (TRAF2 and NCK interacting kinase) | Vehicle | OCI-C5x (clear cell) | 1 | 45.4 | active |
| TNIK (TRAF2 and NCK interacting kinase) | Vehicle | OCI-C5x (clear cell) | 2 | 45.9 | active |
| TNIK (TRAF2 and NCK interacting kinase) | Vehicle | OCI-C5x (clear cell) | 3 | 42.9 | active |
| TNIK (TRAF2 and NCK interacting kinase) | Vehicle | OCI-P5x (serous) | 1 | 79.6 | active |
| TNIK (TRAF2 and NCK interacting kinase) | Vehicle | OCI-P5x (serous) | 2 | 73.4 | active |
| TNIK (TRAF2 and NCK interacting kinase) | Vehicle | OCI-P5x (serous) | 3 | 73.4 | active |

4 of these entries, reformatted.
SNRK (SNF related kinase), rucaparib or vehicle Vehicle, cell line OCI-P5x (serous), technical replicate 1
- viability, normalised (%): 64.2
- Outcome: active

SNRK (SNF related kinase), rucaparib or vehicle Vehicle, cell line OCI-P5x (serous), technical replicate 2
- viability, normalised (%): 56.8
- Outcome: active

SNRK (SNF related kinase), rucaparib or vehicle Vehicle, cell line OCI-P5x (serous), technical replicate 3
- viability, normalised (%): 61.9
- Outcome: active

TNIK (TRAF2 and NCK interacting kinase), rucaparib or vehicle Rucaparib, cell line OCI-C5x (clear cell), technical replicate 1
- viability, normalised (%): 36.6
- Outcome: active

More entries follow.
| gene | rucaparib or vehicle | cell line | technical replicate | viability, normalised (%) | Outcome |
| --- | --- | --- | --- | --- | --- |
| NEK1 (NIMA related kinase 1) | Rucaparib | OCI-C5x (clear cell) | 1 | 41.7 | active |
| NEK1 (NIMA related kinase 1) | Rucaparib | OCI-C5x (clear cell) | 2 | 64 | active |
| NEK1 (NIMA related kinase 1) | Rucaparib | OCI-C5x (clear cell) | 3 | 53.2 | active |
| NEK1 (NIMA related kinase 1) | Rucaparib | OCI-P5x (serous) | 1 | 83.4 | inactive |
| NEK1 (NIMA related kinase 1) | Rucaparib | OCI-P5x (serous) | 2 | 79.7 | active |
| NEK1 (NIMA related kinase 1) | Rucaparib | OCI-P5x (serous) | 3 | 61.9 | active |
| NEK1 (NIMA related kinase 1) | Vehicle | OCI-C5x (clear cell) | 1 | 57.7 | active |
| NEK1 (NIMA related kinase 1) | Vehicle | OCI-C5x (clear cell) | 2 | 57.5 | active |
| NEK1 (NIMA related kinase 1) | Vehicle | OCI-C5x (clear cell) | 3 | 57.7 | active |
| NEK1 (NIMA related kinase 1) | Vehicle | OCI-P5x (serous) | 1 | 74.9 | active |
| NEK1 (NIMA related kinase 1) | Vehicle | OCI-P5x (serous) | 2 | 75.3 | active |
| NEK1 (NIMA related kinase 1) | Vehicle | OCI-P5x (serous) | 3 | 61.4 | active |
| CERK (ceramide kinase) | Rucaparib | OCI-C5x (clear cell) | 1 | 52.6 | active |
| CERK (ceramide kinase) | Rucaparib | OCI-C5x (clear cell) | 2 | 48.8 | active |
| CERK (ceramide kinase) | Rucaparib | OCI-C5x (clear cell) | 3 | 39.1 | active |
| CERK (ceramide kinase) | Rucaparib | OCI-P5x (serous) | 1 | 78 | active |
| CERK (ceramide kinase) | Rucaparib | OCI-P5x (serous) | 2 | 89.3 | inactive |
| CERK (ceramide kinase) | Rucaparib | OCI-P5x (serous) | 3 | 78.2 | active |
| CERK (ceramide kinase) | Vehicle | OCI-C5x (clear cell) | 1 | 42.6 | active |
| CERK (ceramide kinase) | Vehicle | OCI-C5x (clear cell) | 2 | 56 | active |
| CERK (ceramide kinase) | Vehicle | OCI-C5x (clear cell) | 3 | 52.2 | active |
| CERK (ceramide kinase) | Vehicle | OCI-P5x (serous) | 1 | 97.3 | inactive |
| CERK (ceramide kinase) | Vehicle | OCI-P5x (serous) | 2 | 83.3 | inactive |
| CERK (ceramide kinase) | Vehicle | OCI-P5x (serous) | 3 | 66.2 | active |
